Library screening results

The values are deposited in ChEMBL (CHEMBL3988442, “University of Dundee, Small-Polar-MMV Screening Library” (2021)).

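Viability assay of Plasmodium falciparum sporozoites; the read-out is not stated. The concentration is filed as 10 mM, unlikely as a test dose, so the dose is not known. Direction is inferred from retests: higher values go with lower viability. Strong results were mostly tested again. Size under these conditions: about 34,000 compounds, about 280 of them at 50% or above in at least one test.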

The filed quantity is “Percent Effect” (%).
The controls that fix the scale are not given in the record; negative values are as filed.
This is an unselected part of the compounds tested.
Two or more numbers in one place are separate tests of the same structure; such repeats can differ widely.

| # | SMILES | percent effect |
|---|---|---|
| 1 | `COCCC(=O)Nc1cc(CC(C)(C)C)n[nH]1` | -22.82% |
| 2 | `CC(C)c1cnc(CN(C)C2CCN(CCCc3cnn(C)c3)C2)o1` (stereo not given) | 4.404% |
| 3 | `O=C(NCCCN1CCc2ccccc2C1)c1cccnc1O` | 2.696% |
| 4 | `CN(CCc1ccccn1)c1cnn(C)c(=O)c1Br` | 1.074% |
| 5 | `CNc1cc(CNC(=O)c2ccncc2)nc(-c2ccncc2)n1` | -16.57% |
| 6 | `CC(=O)N1CCC2(CC1)CN(CC1CC1)c1ccc(F)cc12` | -11.81% |
| 7 | `Cc1ccc(=O)n(CC2(O)CCN(Cc3ccoc3)CC2)n1` | -10.21% |
| 8 | `CN(C)S(=O)(=O)N1CCCC(c2cccc(Cc3ccccc3)n2)C1` (stereo not given) | 1.413% |
| 9 | `CC(C)c1ccc(OCCC(=O)N2CCCN(C(N)=O)CC2)cc1` | -12.21% |
| 10 | `COc1cccc(-n2nnc(C(=O)N3CCCC3)c2C)c1` | 13.04% |
| 11 | `Cc1cc(C)nc(C2CCCN2S(=O)(=O)N2CCOCC2)n1` (stereo not given) | 5.102% |
| 12 | `Cc1cnn(CC2CCCCN2CCCS(C)(=O)=O)c1` (stereo not given) | 8.61% |
| 13 | `CCc1nc(C2CCCN(C(=O)c3cn(C)nc3C)C2)no1` (stereo not given) | -3.939% & 1.754% & 15.1% |
| 14 | `CN1CCC(c2cnc(NCc3nccn3C)cn2)CC1` | 45.14% & 64.85% & 67.7% |
| 15 | `COc1cc(C(=O)N2CCCC(CNS(C)(=O)=O)C2)cc(OC)c1C` (stereo not given) | -5.811% & 19.71% & 4.48% |
| 16 | `Cc1cccc(C2(C(=O)NCCCn3cccn3)CC2)c1` | -17.62% & -10.12% & -13.81% |
| 17 | `C[C@H]1CN(c2ccccn2)C[C@@]12CCN(Cc1cccnc1)C2=O.O=C(O)C(F)(F)F.O=C(O)C(F)(F)F` | -3.986% |
| 18 | `Cc1cn2c(n1)CCC(NC(=O)c1oc(Br)cc1C)C2` (stereo not given) | -2.629% |
| 19 | `O=C(O)C(F)(F)F.[H][C@]12CN(Cc3cccnc3)C(=O)[C@@]1([H])CN(S(=O)(=O)CC)C2` | 10.6% |
| 20 | `Cc1ccsc1CNC(=O)CCc1c(C)nc2cc(O)nn2c1C` | -3.643% |
| 21 | `CCc1nc(CC(=O)N2CCOCC2c2ncon2)cs1` (stereo not given) | -7.769% |
| 22 | `CN(CCOc1cccc(CNC(=O)C2CC2)c1)C1CCOCC1` | -10.71% |
| 23 | `COCc1nc2cc(NCc3cc[nH]n3)ccc2o1` | -6.915% |
| 24 | `Cc1cncc(C2CCCN2CCO)n1` (stereo not given) | 8.617% |
| 25 | `CS(=O)(=O)c1ccccc1C(=O)NCC1Cc2ccccc2O1` (stereo not given) | 1.063% |
| 26 | `Cc1c(O)oc(-c2ccc(Br)cc2)nc1=O` | -3.769% |
| 27 | `COC(=O)c1ccc(CNC(=O)Cc2csc(C(C)=O)c2)cc1` | 11.8% |
| 28 | `c1cnnc(N2CCCC2CNc2nc3ccccc3o2)c1` (stereo not given) | -22.91% |
| 29 | `Cc1cc(N2CCC(Cc3ccncc3)C2)ncn1` (stereo not given) | 3.517% |
| 30 | `Cc1n[nH]c(C)c1-c1cnc(C2CCN(S(C)(=O)=O)CC2)cn1` | -1.394% |
| 31 | `Cc1noc(C2CCC3(CCN(C(=O)C4=CCCCC4)CC3)O2)n1` (stereo not given) | -7.843% |
| 32 | `CCN(CC)C(=O)c1ccc(-n2ncc(C#N)c2N)cc1` | 8.238% |
| 33 | `O=C(O)C(F)(F)F.O=C(c1ccco1)N1CCCC12CCN(c1ncccn1)CC2` | 6.392% |
| 34 | `O=C(CC1CC1)N1CCC2(CC1)C(=O)NCCN2Cc1ccccc1` | 7.528% |
| 35 | `CC(Cn1cccn1)NC(=O)NCCc1cccnc1` (stereo not given) | 12% |
| 36 | `CN(CCCc1cc(-c2cccc(F)c2)n[nH]1)C(=O)Cn1cncn1` | -1.776% |
| 37 | `Cc1cc(C2CCCN(C(=O)c3c(C)noc3C)C2)n[nH]1` (stereo not given) | 1.917% |
| 38 | `CCn1cnnc1CNC(=O)N1CCN(c2ccccc2OC)CC1` | 6.181% |
| 39 | `CC(C)C(NC(=O)C1CC1)c1cc(O)nc(-c2cccnc2)n1` (stereo not given) | 0.8983% |
| 40 | `Cc1ccnn1CCN1CCCC2(CCC(=O)N(C3CCCC3)C2)C1` (stereo not given) | -1.791% |
| 41 | `CC(=O)N1CCC(NC(=O)c2cc(Cl)ccc2O)CC1` | 6.746% |
| 42 | `Cc1cc(N(C)C)nc(C2(C)CCCN2C(=O)c2cnccn2)n1` (stereo not given) | -12.8% |
| 43 | `COc1c(CNC2CCc3cc(Cl)ccc32)c(C)nn1C` (stereo not given) | 10.2% |
| 44 | `Cc1nn(C)c(C)c1C1CCCN1CC(=O)NC(C1CC1)C1CC1` (stereo not given) | -1.6% |
| 45 | `CC(=O)N1CCC(c2cc(Nc3ncccn3)nc(C)n2)C1` (stereo not given) | -3.54% |
| 46 | `Cn1ncc(Cl)c1C(=O)N1CCc2nc3sccc3c(=O)n2CC1` | 8.196% |
| 47 | `COc1cccc(CN(Cc2ncc[nH]2)Cc2ccco2)c1.O=C(O)CC(O)(CC(=O)O)C(=O)O` | 6.024% |
| 48 | `Cc1cc(C)n(CC(=O)N2CCC(c3ccn4nccc4n3)CC2)n1` | -6.531% |
| 49 | `[H][C@]12CC[C@]([H])(CN(C(=O)C3CCC3)C1)N(C(=O)c1cccc(C#N)c1)C2` | 8.86% |
| 50 | `c1ccc(Cc2noc(CN3CCCCC3C3OCCO3)n2)cc1` (stereo not given) | -17.83% |
| 51 | `Cc1ccnc(NCC2(N(C)C)CCOCC2)n1` | -7.018% |
| 52 | `COc1ccc(CNCCc2cc(F)cc3c2OCOC3)cc1O` | 11.42% |
| 53 | `O=C(O)C(F)(F)F.O=C(O)C(F)(F)F.[H][C@@]12COC[C@]1(COc1ccccn1)CN(Cc1ccoc1)C2` | -5.952% |
| 54 | `c1ccc(-c2nc3c(c(NCc4n[nH]c5c4CCC5)n2)CCNC3)cc1` | -238.7% |
| 55 | `Cc1nc(Nc2nnc(C)s2)cc(C2CCCN2c2ccncc2)n1` (stereo not given) | 2.252% |
| 56 | `Cc1nn(C)cc1NC(=O)CN1CCC(Oc2cnccn2)CC1` | -1.151% |
| 57 | `Cc1cccc(CN2CCC3(CC2)NC(=O)CC3c2ccccc2)n1.O=C(O)C(F)(F)F` (stereo not given) | -9.747% |
| 58 | `CCOc1cccc2c1OCC(C(=O)NS(=O)(=O)c1cccs1)=C2` | -5.543% |
| 59 | `O=C(NCCCn1cccn1)N1CCCC1c1ccsc1` (stereo not given) | -4.902% |
| 60 | `O=C(O)C(F)(F)F.O=C(O)C(F)(F)F.c1ccc(CN2CCOCC3(CCN(C4CCOCC4)C3)C2)cc1` (stereo not given) | 9.508% |
| 61 | `Cc1ccccc1C(=O)N1CCC2(CCCN2CCN(C)C)CC1.O=C(O)C(F)(F)F.O=C(O)C(F)(F)F` | -27.86% & -18.28% & -15.88% |

The first 5 entries again:

{"smiles": "COCCC(=O)Nc1cc(CC(C)(C)C)n[nH]1", "percent effect": -22.82}
{"smiles": "CC(C)c1cnc(CN(C)C2CCN(CCCc3cnn(C)c3)C2)o1", "stereo": "stereo not given", "percent effect": 4.404}
{"smiles": "O=C(NCCCN1CCc2ccccc2C1)c1cccnc1O", "percent effect": 2.696}
{"smiles": "CN(CCc1ccccn1)c1cnn(C)c(=O)c1Br", "percent effect": 1.074}
{"smiles": "CNc1cc(CNC(=O)c2ccncc2)nc(-c2ccncc2)n1", "percent effect": -16.57}